Measurements taken from PubChem BioAssay AID1671190 (National Center for Advancing Translational Sciences (NCATS), 2021).
About 6,100 (1.1%) of roughly 580,000 compounds were called active. This list was built around the results that the source calls inconclusive (neither active nor inactive); the mix of calls is not that of the screen. Calls follow the shape of the dose curve; as a rule, active = well fitted inhibition curve with a large enough effect; inconclusive = small, poorly fitted or top-dose-only effect, or another doubt; inactive = no such curve, though single readings can be large or run the other way. Potencies beside an inconclusive call are fits to weak or partial responses and may not hold up.
% is scaled to controls: 0 for no effect and ±100 for the full control effect; potency is read from the fitted curve at half-maximal effect.

The chains behind the UniProt entries cited, without tags or fusion partners.
UniProt P18054, whole entry, looked up: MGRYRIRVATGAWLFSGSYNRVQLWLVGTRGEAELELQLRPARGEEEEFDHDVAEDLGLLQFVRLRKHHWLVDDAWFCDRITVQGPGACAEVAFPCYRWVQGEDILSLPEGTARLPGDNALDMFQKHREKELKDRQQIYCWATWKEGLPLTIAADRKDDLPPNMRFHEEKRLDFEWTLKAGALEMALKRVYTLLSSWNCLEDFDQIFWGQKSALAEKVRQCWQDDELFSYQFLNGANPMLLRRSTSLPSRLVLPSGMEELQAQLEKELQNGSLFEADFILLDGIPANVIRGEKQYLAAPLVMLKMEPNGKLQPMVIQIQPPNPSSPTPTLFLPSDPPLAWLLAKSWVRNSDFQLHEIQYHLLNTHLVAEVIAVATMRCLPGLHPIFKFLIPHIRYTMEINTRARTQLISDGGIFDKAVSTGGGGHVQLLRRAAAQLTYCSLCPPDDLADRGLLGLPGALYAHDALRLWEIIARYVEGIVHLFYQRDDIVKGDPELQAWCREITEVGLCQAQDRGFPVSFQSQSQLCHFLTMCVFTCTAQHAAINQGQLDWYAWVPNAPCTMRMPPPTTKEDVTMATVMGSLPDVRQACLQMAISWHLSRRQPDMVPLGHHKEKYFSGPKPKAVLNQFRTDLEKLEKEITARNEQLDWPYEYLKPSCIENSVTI

What follows are compounds tested against Polyunsaturated fatty acid lipoxygenase ALOX12 (Homo sapiens) (UniProt P18054) (assay: Primary qHTS assay for inhibitors of human arachidonate 12S-lipoxygenase (ALOX12): Round 2). Settings: purified 12hLO, xylenol orange hydroperoxide absorbance; activity change, negative = inhibition: at 108 µM (top of the series) unless noted.
In short: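 Purified human 12hLO (150 nM final) in 25 mM Hepes, 0.01% Triton X-100, pH 7.0 was preincubated 15 min at room temperature with compound. Then 40 uM arachidonic acid was added, 30 min. Hydroperoxide was read by Fe-XO absorbance ratio 573/405 nm.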
In the case of `CCCCOc1ccc(-c2nnn(CC(=O)Nc3ncc(CC(=O)OCC)s3)n2)cc1`, the Potency is reported as inconclusive: 12.6 µM [inhibitor, partial curve, poor fit].
For `CCN1CCN(C(c2cc3cc4c(cc3[nH]c2=O)OCO4)c2nnnn2C(C)(C)CC)CC1` (stereo not given), the Potency was inconclusive: 3.55 µM [inhibitor, single point].
For `Nc1nc(O)c(CC(=O)O)s1`, the Potency was inconclusive: 0.282 µM [inhibitor, full curve, poor fit].
With `Cc1ncsc1C(=O)NC1CC(c2cc(=O)[nH]c(N3CCCC3)n2)C1` (stereo not given) the Potency was inconclusive: 1 µM [inhibitor, full curve, poor fit].
In the case of `CN(CCO)C(=O)c1cn(C2CCN(Cc3cccc(C(F)(F)F)c3)CC2)nn1`, the Potency is reported as “inactive”.
For `CO[C@H]1CN(C)C(=O)c2cc(NC(=O)C3CCOCC3)ccc2OC[C@H](C)N(Cc2nccs2)C[C@H]1C`, the Potency was “inactive”.
For `CC1(C(=O)Nc2ccc3c(c2)OCCO3)CSCC(=O)N1CCc1ccccc1F` (stereo not given), the Potency was inconclusive: 126 µM [inhibitor, single point].
`O=C1NC(C(=O)Nc2cccc(Cl)c2)Cn2cccc21` (stereo not given) was tested, and the Potency was inconclusive: 10 µM [inhibitor, full curve, poor fit].
`COC(=O)c1cc2nc(-c3ccc(OC)c(OC)c3)cc(C(F)(F)F)n2n1` was tested, and the Potency was “inactive”.
For `COCCC(C(=O)Oc1c(C(C)(C)C)cc(C)cc1C(C)(C)C)c1ccccc1` (stereo not given), the Potency was inconclusive: 15.8 µM [inhibitor, full curve, poor fit].
With `CC(C)c1ccc(NC(=O)CCn2cnc3c2c(=O)n(C)c(=O)n3C)cc1` the Potency was inconclusive: 7.08 µM [inhibitor, partial curve, poor fit].
For `Cn1cc(CCNC(=O)c2ccc3oc(-c4cccc(F)c4)nc3c2)cn1`, the Potency was “inactive”.
With `COc1cccc(OCCNCc2ccccc2)c1` the Potency was inconclusive: 2.51 µM [inhibitor, full curve].
For `Cc1cc(C)c2oc(-c3cccc(NC(=O)c4ccccc4[N+](=O)[O-])c3)nc2c1`, the Potency was “inactive”.
`CC(=O)c1c(C)n(-c2ccc(Br)cc2)c2ccc(O)cc12` was tested, and the Potency was inconclusive: 0.447 µM [inhibitor, full curve, poor fit].
For `COc1ccccc1CN1CCNC(=O)C1=O`, the Potency was inconclusive: 3.16 µM [inhibitor, full curve, poor fit].
`COc1cccc(N2C(=O)NC(=NC3CCCC3)C23CCN([S+](=O)([O-])c2cccs2)C3)c1` (stereo not given) was tested, and the activity change, negative = inhibition was inactive: 3.97% [at 6.33 µM].
In the case of `COc1ccc2ncc(C(=O)c3ccc(C)c(C)c3)c(N3CCOCC3)c2c1`, the Potency is reported as inconclusive: 28.2 µM [inhibitor, full curve, poor fit].
For `Cc1ccc2[nH]cc(CCNC(=O)c3c(F)cccc3F)c2c1`, the Potency was inconclusive: 35.5 µM [inhibitor, single point].
With `Cc1ccc(N2C(=O)C(Cl)=C(Nc3c(C)n(C)n(-c4ccccc4)c3=O)C2=O)cc1` the Potency was inconclusive: 7.94 µM [inhibitor, full curve, poor fit].
For `O=CN(CCN(C=O)CN1CCCCC1)CN1CCCCC1`, the Potency was inconclusive: 141 µM [inhibitor, single point].
For `CCN(CC)Cc1c(O)ccc2occ(C(=O)c3ccccc3)c12`, the Potency was inconclusive: 112 µM [inhibitor, single point].
In the case of `Cc1ccc(C(=O)N2CCN(c3cccc(C)c3C)CC2)cc1NC(=O)C1=CSCCO1`, the Potency is reported as inconclusive: 44.7 µM [inhibitor, partial curve, poor fit].
In the case of `CCN1CN(Cc2ccccc2)CNC1=S`, the Potency is reported as “inactive”.
`O=C(CS(=O)(=O)c1ccc(Cl)cc1)NCCS(=O)(=O)c1ccc(Cl)cc1` was tested, and the Potency was inconclusive: 44.7 µM [inhibitor, partial curve, poor fit].
In the case of `CC(C)c1nnc(NC(=O)Cn2ccc3ccc(Cl)cc32)s1`, the Potency is reported as inconclusive: 56.2 µM [inhibitor, partial curve, poor fit].
In the case of `CCOC(=O)C1=C(C)N(C)C(=S)NC1c1ccc(Cl)cc1Cl` (stereo not given), the Potency is reported as inconclusive: 44.7 µM [inhibitor, partial curve, poor fit].
For `Cc1cc(C)cc(Nc2nc3ccccc3nc2NS(=O)(=O)c2ccc(F)cc2)c1`, the Potency was “inactive”.
With `Cn1c(=O)c2cc(C(=O)NC3CCCCCC3)sc2c2ccccc21` the Potency was inconclusive: 14.1 µM [inhibitor, partial curve, poor fit].
In the case of `COc1ccc(S(=O)(=O)N2CCCC(Cn3c(C4CC4)nc4cccnc43)C2)cc1` (stereo not given), the Potency is reported as “inactive”.
With `CCc1nnc(N/N=C\c2ccc(OC(C)=O)c(OC)c2)n1N` the Potency was inconclusive: 39.8 µM [inhibitor, single point].
`N#CC1(C#N)CC1(C#N)C(N)=O` (stereo not given) was tested, and the Potency was inconclusive: 3.55 µM [inhibitor, full curve, poor fit].
With `CCOC(=O)c1[nH]c2ccc(OC)cc2c1NC(=O)CN1CCC2(CC1)OCCO2` the Potency was “inactive”.
With `NS(=O)(=O)c1ccc(Nc2nc(-c3ccc4ccccc4c3)cs2)cc1` the Potency was inconclusive: 100 µM [inhibitor, partial curve, poor fit].
With `Cc1ccc(CN2CC(C(=O)Nc3cc(S(C)(=O)=O)ccc3Cl)CC2=O)cc1` (stereo not given) the Potency was inconclusive: 39.8 µM [inhibitor, partial curve, poor fit].
`CCOC(=O)c1ncn2c1C(=O)OC2(C)C` was tested, and the Potency was inconclusive: 4.47 µM [inhibitor, full curve, poor fit].
`Cc1cc(N2CCN(c3cccc(C)c3C)CC2)n2nc(-c3ccco3)nc2n1` was tested, and the Potency was inconclusive: 35.5 µM [inhibitor, partial curve, poor fit].
For `Cc1cc(NCc2ccccn2)nc2ccccc12`, the Potency was “inactive”.
`O=C(COC(=O)c1ccc(O)cc1O)Nc1ccc2c(c1)OCCO2` was tested, and the Potency was inconclusive: 35.5 µM [inhibitor, partial curve, poor fit].
In the case of `N/C(=N\OS(=O)(=O)c1ccc(Br)cc1)c1ccncc1`, the Potency is reported as inconclusive: 2.82 µM [inhibitor, full curve, poor fit].
For `Cn1ccnc1C(O)c1cc(C(C)(C)C)c(O)c(C(C)(C)C)c1` (stereo not given), the Potency was inconclusive: 35.5 µM [inhibitor, partial curve, poor fit].
For `COc1ccc(OCC(=O)Nc2ccc(-c3nc4ccccc4o3)cc2)cc1`, the Potency was “inactive”.
With `COc1cccc(/C=C/c2nc(S(=O)(=O)c3ccccc3)c(N(C)C)o2)c1` the Potency was inconclusive: 50.1 µM [inhibitor, partial curve, poor fit].
With `CN1C(=O)Cc2cc(-c3csc(-c4ccccc4)n3)ccc21` the Potency was inconclusive: 11.2 µM [inhibitor, full curve].
With `CC(C)(C)c1csc(NNC(=O)c2ccc(Br)cc2)n1` the Potency was “inactive”.
`Cc1cccc(-c2noc(CNC(=O)COc3cc(C)cc(C)c3C)n2)c1` was tested, and the Potency was “inactive”.
In the case of `O=C(Nc1cc(-c2ccccc2)nn1C1CCS(=O)(=O)C1)c1cccs1` (stereo not given), the Potency is reported as inconclusive: 126 µM [inhibitor, single point].
`O=C1CCc2cc(NS(=O)(=O)c3cc(F)ccc3F)cc3c2N1CC3` was tested, and the Potency was inconclusive: 89.1 µM [inhibitor, single point].
`CC(C)c1ccc(/C=C(\C#N)C(=O)NC2CCCCC2)cc1` was tested, and the Potency was inconclusive: 56.2 µM [inhibitor, full curve, poor fit].
`O=C1NCc2ccccc2CC12CCN(Cc1cnc3ccccc3c1)CC2` was tested, and the Potency was inconclusive: 35.5 µM [inhibitor, partial curve].
`CCCCOc1ccc(-c2c(C#N)c(N)[nH]c(=S)c2C#N)cc1` was tested, and the Potency was inconclusive: 28.2 µM [inhibitor, partial curve, poor fit].
`COc1ccccc1C(=O)Nc1ccc(S(=O)(=O)N2CCOCC2)cc1` was tested, and the Potency was inconclusive: 126 µM [inhibitor, single point].
In the case of `Cc1ccc(C)n1-c1c(C(=O)N2CCC(C)CC2)sc2ncccc12`, the Potency is reported as inconclusive: 89.1 µM [inhibitor, single point].
`CCn1cc(C(=O)OCC(=O)Nc2ccc(C(C)C)cc2)c(=O)c2ccc(C)nc21` was tested, and the Potency was inconclusive: 56.2 µM [inhibitor, partial curve, poor fit].
For `c1ccc(OCCCN2CCC(c3nc4ccccc4s3)CC2)cc1`, the Potency was active: 0.708 µM.
In the case of `O=C(NC1CC1)c1ccc2c(c1)OCCCO2`, the Potency is reported as “inactive”.
`CCCOc1ccc(C2C(=O)N(C3CCCCCC3)CC(=O)N2CCC2=CCCCC2)cc1OC` (stereo not given) was tested, and the activity change, negative = inhibition was inconclusive: -46.6% [inhibitor].
`COc1cccc(-n2nnnc2SCC(=O)NCc2ccco2)c1` was tested, and the Potency was inconclusive: 79.4 µM [inhibitor, partial curve, poor fit].
`O=C(CCCN1C(=O)C(=Cc2ccc3c(c2)OCO3)SC1=S)Nc1ccc(C(=O)O)c(O)c1` was tested, and the Potency was inconclusive: 44.7 µM [inhibitor, partial curve, poor fit].
`CCOc1ccc(N(Cc2nc3nc(C)cc(C)n3n2)S(=O)(=O)c2ccc(C)cc2)cc1` was tested, and the Potency was “inactive”.
With `NC(=O)CC(NC(=O)Cc1ccc(Br)cc1)c1ccc(NCC2CC2)c([N+](=O)[O-])c1` (stereo not given) the Potency was inconclusive: 17.8 µM [inhibitor, single point].
`CCCOc1ccc(C2NC(=S)NC(c3ccccc3)=C2C(=O)Nc2ccc(C)cc2)cc1OC` (stereo not given) was tested, and the Potency was active: 31.6 µM.
In the case of `COc1cccc(-c2nc3nc(C)cc(C)n3c2Nc2ccc3c(c2)OCCO3)c1`, the Potency is reported as inconclusive: 100 µM [inhibitor, single point].
`COc1ccccc1C(c1nnnn1Cc1ccccc1)N1CCN(c2nc3ccccc3s2)CC1` (stereo not given) was tested, and the Potency was inconclusive: 14.1 µM [inhibitor, partial curve, poor fit].
In the case of `O=C1[C@@H]2C[C@@H](CN2Cc2ccc3c(c2)OCO3)Oc2ccccc2N1CC1CC1`, the Potency is reported as inconclusive: 89.1 µM [inhibitor, partial curve, poor fit].
